Data as given in patent publication US20210347912A1.
These are yes or no findings as the source states them, for the method shown. Some entries that bind do so weakly or less than the wild type.

Chains of the proteins cited; added tags and fusions are not shown. Lines headed by an entry give the natural chain unless they say otherwise; changes in a name come on top.
UniProt P36222: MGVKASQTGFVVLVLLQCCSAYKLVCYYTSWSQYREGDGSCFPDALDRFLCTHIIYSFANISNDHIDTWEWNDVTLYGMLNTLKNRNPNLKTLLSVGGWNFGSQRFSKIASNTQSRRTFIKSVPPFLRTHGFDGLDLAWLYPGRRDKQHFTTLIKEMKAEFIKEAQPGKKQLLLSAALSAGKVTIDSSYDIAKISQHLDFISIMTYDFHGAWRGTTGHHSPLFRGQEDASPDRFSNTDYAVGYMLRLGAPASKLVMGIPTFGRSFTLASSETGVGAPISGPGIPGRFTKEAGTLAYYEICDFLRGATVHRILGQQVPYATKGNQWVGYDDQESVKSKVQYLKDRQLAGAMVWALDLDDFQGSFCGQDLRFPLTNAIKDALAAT

Each binder was assayed against Human YKL-40 also known as Chitinase-3-like protein 1 (CHI3L1) (human) (UniProt P36222) (assay: phage ELISA on purified YKL-40 (secondary screening)).

binding	Binder
binds	3F12 predator (VHH) VHH: EVQLLESGGGLVQPGGSLRLSCAASGFRDSDEDMGWVRQAPGKGLEWVSSINANDGSTYYADSVKGRFTISRDNSKNTLYLQMNSLRAEDTAVYYCASQYDDEFAFDYWGQGTLVTVSS
binds	2D7 predator (VHH) VHH: EVQLLESGGGLVQPGGSLRLSCAASGFRDSDEDMGWVRQAPGKGLEWVSSISGESGSTYYADSVKGRFTISRDNSKNTLYLQMNSLRAEDTAVYYCASVDPLDTYFDYWGQGTLVTVSS
binds	2H12 predator (VHH) VHH: EVQLLESGGGLVQPGGSLRLSCAASGFRDSDEDMGWVRQAPGKGLEWVSSINNESGSTYYADSVKGRFTISRDNSKNTLYLQMNSLRAEDTAVYYCASTSYYGFDFDYWGQGTLVTVSS
binds	4D5 predator (VHH) VHH: EVQLLESGGGLVQPGGSLRLSCAASGFRDSDEDMGWVRQAPGKGLEWVSSIGNYNGSTYYADSVKGRFTISRDNSKNTLYLQMNSLRAEDTAVYYCASVSDSGFSFDYWGQGTLVTVSS
binds	2F3 predator (VHH) VHH: EVQLLESGGGLVQPGGSLRLSCAASGFRDSDEDMGWVRQAPGKGLEWVSSIGAGSGSTYYADSVKGRFTISRDNSKNTLYLQMNSLRAEDTAVYYCASSTDARWQFDYWGQGTLVTVSS
binds	4D9 predator (VHH) VHH: EVQLLESGGGLVQPGGSLRLSCAASGFRDSDEDMGWVRQAPGKGLEWVSSIASDSGSTYYADSVKGRFTISRDNSKNTLYLQMNSLRAEDTAVYYCASSGYAGTVFDYWGQGTLVTVSS
binds	2D3 predator (VHH) VHH: EVQLLESGGGLVQPGGSLRLSCAASGFRDSDEDMGWVRQAPGKGLEWVSSIDAEDGSTYYADSVKGRFTISRDNSKNTLYLQMNSLRAEDTAVYYCASQDGAYYTFDYWGQGTLVTVSS
binds	4E10 predator (VHH) VHH: EVQLLESGGGLVQPGGSLRLSCAASGFRDSDEDMGWVRQAPGKGLEWVSSIYGPSGSTYYADSVKGRFTISRDNSKNTLYLQMNSLRAEDTAVYYCASSDWDGYSFDYWGQGTLVTVSS
binds	4G1 predator (VHH) VHH: EVQLLESGGGLVQPGGSLRLSCAASGFRDSDEDMGWVRQAPGKGLEWVSSIGDESGSTYYADSVKGRFTISRDNSKNTLYLQNSLRAEDTAVYYCASTSDSYWSFDYWGQGTLVTVSS
